Laboratory results: PubChem BioAssay AID743454 (Peter MacCallum Cancer Centre, 2014)

Assay: 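Genes whose loss kills vorinostat-resistant colon cancer cells under vorinostat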 (primary screen)
System: human HCT116-VR colon cancer cells, selected for vorinostat resistance
Reagents: siRNA pool against human genes, 40 nM siRNA pool
Timing: vorinostat for 24 h, read-out about 72 h after transfection
Treatment: vorinostat at 2.5 µM final
Measured: 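Two measures, CellTiter-Fluor viability and luminescent caspase 3/7 activity, each as fold change against same-plate mock wells, mean of duplicates, then screen-wide robust z-score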
Reading the numbers: viability robust z-score: higher = more viable cells than screen typical; caspase robust z-score: higher = more caspase 3/7 activity than screen typical
Rule for the call: 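a knock-down is a hit when classed RV1 or RV2 for lowered viability, or CA1 or CA2 for caspase activation; those lethal without drug were dropped; hits were retested singly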
This is an unselected part of about 18,000 reagents. In the full data, 450 (2.5%) are marked active. 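Single biological run; no consistent viability z cut-off exists, so the class columns, not z-scores, define the calls.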 A number with no mark means an inactive call. Reagent sequences are not shown.

gene | viability hit class | caspase hit class | viability robust z-score | caspase robust z-score
INTS2 | no change (active) | CA1 (caspase activation) | -0.42 | 6.75
IQCF3 | no change | no change | -0.39 | -0.45
TFAP2C | no change | no change | 1.01 | 1.34
SELENOT | no change | no change | 0.48 | 1.82
ATG16L2 | no change | no change | 0.26 | 2.76
PPIL1 | no change | no change | -0.84 | -1
PRRG1 | no change | no change | 1.43 | -0.15
IL18BP | no change | no change | -0.7 | -0.2
PLAAT2 | no change | no change | -0.3 | 3.73
CLK4 | no change | no change | -0.29 | -1.15
HTR3C | no change | no change | -0.2 | -0.94
SOBP | no change | no change | -0.58 | 1.36
TNFSF13 | no change | no change | 1.64 | -0.96
TCTN3 | no change | no change | -0.3 | -0.06
CWF19L2 | no change | no change | 0.34 | -0.92
FGF23 | no change | no change | -1.54 | 0.58
HBE1 | no change | no change | -0.43 | 0.11
CLIP4 | no change | no change | -0.94 | 0.05
FOXL2 | no change | no change | 1.12 | 0.22
MCM9 | no change | no change | 0.92 | -0.27
VPS54 | no change | no change | -1.64 | 0.95
EDA2R | no change | no change | 1.51 | -0.66
BNC2 | no change | no change | 0.3 | -0.92
GDAP1 | no change | no change | 0.86 | -0.32
PKNOX1 | no change | no change | 0.6 | -0.36
PYGL | no change | no change | -0.14 | -0.21
RNF34 | no change | no change | -0.13 | 0.18
OR8B12 | no change | no change | -0.55 | -0.89
OR10G9 | no change | no change | 0.68 | 0.26
FTH1 | no change | no change | 1.92 | 1.28
ZFAND5 | no change (active) | CA2 (caspase activation) | -2.52 | 10.4
NKIRAS2 | no change | no change | 0.52 | 1.25
ATP6V0B | no change | no change | -0.51 | 0.76
RWDD4 | no change | no change | 0.62 | 0.42
POMT2 | no change | no change | -0.46 | 3.84
TSPAN9 | no change | no change | 0.67 | 2.77
CIMIP5 | no change | no change | 0.86 | 0.82
PREX2 | no change | no change | -0.18 | -1.06
IL22 | no change | no change | -0.76 | 0.31

Single entries from the list.
EDA2R, caspase robust z-score = -0.66
CIMIP5, viability robust z-score → 0.86
Value for TCTN3 under “caspase robust z-score”: -0.06
BNC2, caspase robust z-score = -0.92
